According to PubChem BioAssay AID540276 (National Center for Advancing Translational Sciences (NCATS), 2011):
Among all 300,000 compounds or so, about 5,400 (1.8%) were called active. This list was built around the results that the source calls inconclusive (neither active nor inactive); the mix of calls is not that of the screen. Calls follow the shape of the full dose curve; tested in HEK293 cells. Potencies of inconclusive entries are doubtful fits and often do not repeat.

Assay: qHTS for inhibitors of binding or entry into cells for Marburg Virus
Settings: Marburg virus pseudotyped entry inhibition, cell reporter; activity change, negative = inhibition: at 37.8 µM (top of the series) unless noted
% is scaled to controls: 0 for no effect and ±100 for the full control effect; potency is read from the fitted curve at half-maximal effect.

For `O=C(CNC(=O)c1ccc(Cl)cc1)N/N=C/c1cccnc1`, which “activity change, negative = inhibition” value is on record?
Its value is inactive: -18.2% [at 46.1 µM].

For `Cc1cc(C)c2cc(C#N)c(N3CCCN(C(=S)NCCCN(C)C)CC3)nc2c1`, which Potency is on record?
Its Potency is inconclusive: 2.51 µM [inhibitor, full curve, poor fit].

With `CC(=O)c1ccc(Nc2cc(C)nc3nc(Cc4ccccc4)nn23)cc1` as the compound, how does the “activity change, negative = inhibition” value read?
The value was inactive: 5.64% [at 46.1 µM].

Which “activity change, negative = inhibition” value does the source give for `CCOc1cc(C=O)ccc1OCCCN1C(=O)NC(C)(C)C1=O` here?
Its value is inactive: -0.447%.

Which “activity change, negative = inhibition” value does the source give for `O=C(c1ccco1)N1CCN(C(c2ccc(Cl)cc2)c2nnnn2Cc2ccccc2)CC1` (stereo unspecified) here?
The value was inactive: -7.5%.

For `Cc1onc(-c2ccccc2Cl)c1C(=O)N1CCOC12CCCCC2`, which Potency is on record?
The Potency was inconclusive: 20 µM [inhibitor, single point].

With `CC(Oc1ccccc1Cl)C(=O)Nc1ccc(S(=O)(=O)N2CCCC2)cc1` (stereo unspecified) as the compound, how does the Potency read?
Its Potency is inconclusive: 35.5 µM [inhibitor, single point].

Which Potency does the source give for `Cc1cc(C)c(S(C)(=O)=O)c(Sc2ccc(Cl)cc2)n1` here?
The Potency was inconclusive: 8.91 µM [inhibitor, partial curve].

With `COc1ccc(-c2nnc(SCC(C)C)o2)cc1` as the compound, how does the Potency read?
The Potency was inconclusive: 3.55 µM [inhibitor, single point].

Which “activity change, negative = inhibition” value does the source give for `CC(=O)c1ccc(OC(=O)c2cccs2)cc1` here?
Its value is inactive: -4.53%.

For `Cc1ccc(N2C(=O)c3n[nH]c(C)c3C2c2ccccn2)cc1` (stereo unspecified), which Potency is on record?
The Potency was inconclusive: 11.2 µM [inhibitor, single point].

Which Potency does the source give for `CC(=O)Oc1c(C(=O)c2nnc(C)o2)c(=O)n(C)c2ccccc12` here?
Its Potency is inconclusive: 0.891 µM [activator, single point].

For `COc1ccc(-n2c(=O)c3c4c(sc3n(Cc3ccccc3C)c2=O)CCCC4)c(OC)c1`, which Potency is on record?
Its Potency is inconclusive: 22.4 µM [inhibitor, single point].

With `COc1ccc(Nc2ncnc3sccc23)cc1OC` as the compound, how does the “activity change, negative = inhibition” value read?
The value was inactive: 11% [at 46.1 µM].

With `Cc1ccc(C)c(N(C(=O)CCC(=O)Nc2cc(C)on2)C(C(=O)NC2CCCC2)c2ccco2)c1` (stereo unspecified) as the compound, how does the Potency read?
The Potency was inconclusive: 15.8 µM [inhibitor, partial curve, poor fit].

With `CCOc1ncccc1C(=O)OCC(=O)N1CCC(C)CC1` as the compound, how does the Potency read?
The Potency was inconclusive: 35.5 µM [activator, partial curve, poor fit].

With `CCOC(=O)C1=C(C)NC(=O)C1CC(=O)O` (stereo unspecified) as the compound, how does the “activity change, negative = inhibition” value read?
The value was inactive: 16.6%.

For `CCc1cc(=O)oc2cc(OCc3nn[nH]n3)ccc12`, which Potency is on record?
Its Potency is inconclusive: 14.1 µM [inhibitor, partial curve, poor fit].

With `CN(C)/C=N/C1=C(C#N)C(c2ccc(Br)cc2)c2ccc3ccccc3c2O1` (stereo unspecified) as the compound, how does the Potency read?
Its Potency is inconclusive: 7.08 µM [inhibitor, full curve, poor fit].

For `COc1ccc(N2CCN(C(=O)c3ccc(NS(=O)(=O)c4ccc(F)cc4)cc3)CC2)cc1`, which Potency is on record?
Its Potency is “inactive”.

With `COc1cc(C2NC(=O)NC(C)=C2C(=O)OC2CCCC(C)C2)ccc1O` (stereo unspecified) as the compound, how does the “activity change, negative = inhibition” value read?
The value was inactive: -5.38%.

For `O=C(O)CC(C(=O)O)N1C(=O)/C(=C/c2ccc(-c3nc4ccccc4s3)o2)SC1=S` (stereo unspecified), which Potency is on record?
The Potency was inconclusive: 7.94 µM [inhibitor, partial curve].

Which “activity change, negative = inhibition” value does the source give for `COc1ccc(NC(=O)CN2CCC(C(=O)c3ccc(F)cc3)CC2)c(OC)c1` here?
The value was inactive: -15.8% [at 46.1 µM].

Which “activity change, negative = inhibition” value does the source give for `CCc1c(C)c2cc3c(c(C)c2oc1=O)OCN(CCc1ccc(OC)c(OC)c1)C3` here?
The value was inactive: -9.79% [at 46.1 µM].

Which Potency does the source give for `Cc1cc(C)cc(NC(=O)CCc2c(C)nn(-c3ccc(N4CCOCC4)nn3)c2C)c1` here?
Its Potency is inconclusive: 0.562 µM [activator, full curve, poor fit].

Which Potency does the source give for `O=C(NCc1ccco1)c1ccccc1NC(=O)C1CC(=O)N(c2ccc(Cl)cc2)C1` (stereo unspecified) here?
Its Potency is inconclusive: 25.9 µM [inhibitor, single point].

With `Oc1cccc(C(O)CNCc2ccc(-c3ccccc3)cc2)c1` (stereo unspecified) as the compound, how does the Potency read?
Its Potency is inconclusive: 22.4 µM [inhibitor, partial curve, poor fit].

Which Potency does the source give for `COc1ccc(NC(=O)Nc2cc(C)ccc2OC(F)F)c(OC)c1` here?
Its Potency is inconclusive: 10.3 µM [activator, partial curve, poor fit].

Which “activity change, negative = inhibition” value does the source give for `CCOc1cc(NC(=S)NCCCN2CCOCC2)c(OCC)cc1NC(=O)C(C)C` here?
Its value is inactive: 8.48%.

With `Cc1ccc(NC(=O)c2cccc(OC(F)F)c2)c(OC(F)F)c1` as the compound, how does the “activity change, negative = inhibition” value read?
The value was inactive: -21%.

For `Cc1cccc(NC(=O)CCN2C(=O)C3C4C=CC(C4)C3C2=O)n1` (stereo unspecified), which Potency is on record?
Its Potency is inconclusive: 6.31 µM [activator, single point].

For `CC1CC(C)(C)Nc2ccc(OC(=O)c3ccco3)cc21` (stereo unspecified), which Potency is on record?
Its Potency is inconclusive: 22.4 µM [inhibitor, partial curve, poor fit].

With `CN1CCN(c2ccc([N+](=O)[O-])cc2C(=O)c2ccc(Br)cc2)CC1` as the compound, how does the Potency read?
Its Potency is inconclusive: 4.11 µM [inhibitor, full curve].

For `COc1cc(/C=C/c2cc[n+](C)cc2)ccc1OCC(=O)Nc1ccc(Cl)c(Cl)c1`, which Potency is on record?
The Potency was inconclusive: 17.8 µM [inhibitor, single point].

For `COc1ccccc1NC(=O)CN1CCN(CC(=O)Nc2ccc3c(c2)OCCO3)CC1`, which Potency is on record?
The Potency was inconclusive: 3.55 µM [inhibitor, single point].

For `C/C(=N\OCC(=O)OCC(=O)NCc1ccccc1)c1ccc2c(c1)OCO2`, which Potency is on record?
The Potency was inconclusive: 35.5 µM [activator, single point].

Which “activity change, negative = inhibition” value does the source give for `O=C(NN=C1CCCCCC1)c1ccc(Br)o1` here?
Its value is inactive: 1.55%.

With `Cc1ccc(C)c(N2CCN(CCCNC(=O)c3ccc4nc(N5CCC(C)CC5)sc4c3)CC2)c1` as the compound, how does the activity change, negative = inhibition read?
The activity change, negative = inhibition was inconclusive: 49.5% [activator] [at 46.1 µM].

With `O=C(NCCCc1ccccc1)c1ccc(F)cc1` as the compound, how does the Potency read?
Its Potency is inconclusive: 0.891 µM [activator, full curve, poor fit].

With `O=C(c1cccc(S(=O)(=O)N2CCN(c3ccccc3)CC2)c1)N1CCCC(C(F)(F)F)C1` (stereo unspecified) as the compound, how does the Potency read?
Its Potency is inconclusive: 12.6 µM [inhibitor, partial curve, poor fit].

With `Cn1c(SCc2nc3ccccc3[nH]2)nnc1-c1cccnc1` as the compound, how does the Potency read?
The Potency was inconclusive: 2.31 µM [activator, partial curve, poor fit].
